Key:
[1] = Friction coefficient of sample tape coated with the lubricant, after 1000 runs; conditions: 1 mg/m^2 on carbon film layer
[2] = Corrosion resistance: magnetic deterioration rate after storage in high-temperature, high-humidity environment; conditions: one week at 60° C. and 80% RH
[3] = Corrosion resistance: magnetic deterioration rate after storage in corrosive gas environment; conditions: 5 hours, 35° C., 70% RH, 2 ppm H2S and 1 ppm HCl
[4] = Shuttle durability of sample tape: playback output change after 100 runs on AIT2 deck; conditions: difference between initial output and playback output after 100 runs; for Shuttle durability (dB) (−5° C.): 20% RH

Row | Compound | Friction coefficient (40° C., 80% RH) [1] | High-temperature, high-humidity environment (magnetic deterioration rate) ([2]; Tables 8 and 9) | Corrosive gas environment (magnetic deterioration rate) ([3]; Tables 8 and 9) | Shuttle durability (dB) (40° C., 20% RH) [4] | Shuttle durability (dB) (−5° C.) [4] | High-temperature, high-humidity environment (magnetic deterioration rate) ([2]; Tables 17 and 18) | Corrosive gas environment (magnetic deterioration rate) ([3]; Tables 17 and 18)
1 | CCCCCCCCCCCCCCCCCCC(CC(=O)OCC(CC(F)(F)C(F)(F)C(F)(F)C(F)(F)C(F)(F)C(F)(F)F)OC(=O)CC(CCCCCCCCCCCCCCCCCC)C(=O)O)C(=O)O (stereo not drawn) [Comparative Example 7, C18H37CH(COOH)CH2COOCH(CH2C6F13)CH2OCOCH2CH(COOH)C18H37, reference compound] | 0.23 | ◯ (magnetic deterioration rate is 3% or less) | ◯ (magnetic deterioration rate is 3% or less) | −4.0 dB | −3.5 dB | – | –
2 | CCCCCCCCCC(CC=CCCCCCCCC(=O)OC(CC(=O)O)C(=O)O)C(F)(F)C(F)(F)C(F)(F)C(F)(F)C(F)(F)C(F)(F)C(F)(F)C(F)(F)F (stereo not drawn) [Example 18, CF3(CF2)7CH(C9H19)CH2CH═CH(CH2)7COOCH(COOH)CH2COOH] | 0.20 | ⊙ (magnetic deterioration rate is 1% or less) | ⊙ (magnetic deterioration rate is 1% or less) | −1.5 dB | −0.5 dB | – | –
3 | O=C(O)CC(CC(=O)OCCCCCCCCCCCC(F)(F)C(F)(F)C(F)(F)C(F)(F)C(F)(F)C(F)(F)C(F)(F)C(F)(F)F)C(=O)O (stereo not drawn) [Example 9, CF3(CF2)7(CH2)11OCOCH2CH(COOH)CH2COOH] | 0.18 | ⊙ (magnetic deterioration rate is 1% or less) | ⊙ (magnetic deterioration rate is 1% or less) | −0.8 dB | −0.3 dB | – | –
4 | O=C(O)CC(CC(=O)OCCCCCCC(F)(F)C(F)(F)C(F)(F)C(F)(F)C(F)(F)C(F)(F)C(F)(F)C(F)(F)F)C(=O)O (stereo not drawn) [Example 8, CF3(CF2)7(CH2)6OCOCH2CH(COOH)CH2COOH] | 0.22 | ⊙ (magnetic deterioration rate is 1% or less) | ⊙ (magnetic deterioration rate is 1% or less) | −0.8 dB | −0.5 dB | – | –
5 | O=C(O)CC(CC(=O)OCCCCCCCCCCCC(F)(F)C(F)(F)C(F)(F)C(F)(F)F)C(=O)O (stereo not drawn) [Example 23, CF3(CF2)3(CH2)11OCOCH2CH(COOH)CH2COOH] | 0.20 | – | – | −1.5 dB | −1.0 dB | ⊙ (magnetic deterioration rate is 1% or less) | ◯ (magnetic deterioration rate is 3% or less)
6 | CCCCCCCCCCCCCCCCCCC(CC(=O)OCCCCCCCCCCCC(F)(F)C(F)(F)C(F)(F)C(F)(F)C(F)(F)C(F)(F)C(F)(F)C(F)(F)F)C(=O)OC(CC(=O)O)C(=O)O (stereo not drawn) [Example 34, CF3(CF2)7(CH2)11OCOCH2CH(C18H37)COOCH(COOH)CH2COOH] | 0.20 | – | – | −0.8 dB | −0.5 dB | ⊙ (magnetic deterioration rate is 1% or less) | ⊙ (magnetic deterioration rate is 1% or less)
7 | O=C(O)CC(OC(=O)C(F)(F)C(F)(F)C(F)(F)C(F)(F)C(F)(F)C(F)(F)C(F)(F)C(F)(F)F)C(=O)O (stereo not drawn) [Example 5, CF3(CF2)7COOCH(COOH)CH2COOH] | 0.27 | ◯ (magnetic deterioration rate is 3% or less) | ⊙ (magnetic deterioration rate is 1% or less) | −1.7 dB | −1.0 dB | – | –
8 | CCCCCCCCCCCCCCCCCCC(CC(=O)OCCC(F)(F)C(F)(F)C(F)(F)C(F)(F)F)C(=O)OC(CC(=O)O)C(=O)O (stereo not drawn) [Example 32, CF3(CF2)3(CH2)2OCOCH2CH(C18H37)COOCH(COOH)CH2COOH] | 0.25 | – | – | −1.0 dB | −0.5 dB | ◯ (magnetic deterioration rate is 3% or less) | ⊙ (magnetic deterioration rate is 1% or less)
9 | O=C(O)CC(OC(=O)CCCCCCCCCCC(F)(F)C(F)(F)C(F)(F)C(F)(F)F)C(=O)O (stereo not drawn) [Example 2, CF3(CF2)3(CH2)10COOCH(COOH)CH2COOH] | 0.23 | ⊙ (magnetic deterioration rate is 1% or less) | ◯ (magnetic deterioration rate is 3% or less) | −1.0 dB | −0.5 dB | – | –
10 | O=C(O)CC(OC(=O)CCCCCCCCCCCCC(F)(F)C(F)(F)C(F)(F)C(F)(F)C(F)(F)C(F)(F)C(F)(F)C(F)(F)F)C(=O)O (stereo not drawn) [Example 16, CF3(CF2)7(CH2)12COOCH(COOH)CH2COOH] | 0.23 | ⊙ (magnetic deterioration rate is 1% or less) | ⊙ (magnetic deterioration rate is 1% or less) | −1.0 dB | −1.0 dB | – | –
11 | CCCCCCCCC(CC(=O)OCCC(F)(F)C(F)(F)C(F)(F)C(F)(F)C(F)(F)C(F)(F)C(F)(F)C(F)(F)F)C(=O)OC(CC(=O)O)C(=O)O (stereo not drawn) [Example 30, CF3(CF2)7(CH2)2OCOCH2CH(C8H17)COOCH(COOH)CH2COOH] | 0.27 | – | – | −1.5 dB | −1.0 dB | ◯ (magnetic deterioration rate is 3% or less) | ⊙ (magnetic deterioration rate is 1% or less)
12 | CF3(CF2)7(CH2)2OCOCH2CH(C18H35)COOCH(COOH)CH2COOH [Example 35] | 0.24 | – | – | −1.0 dB | −1.0 dB | ⊙ (magnetic deterioration rate is 1% or less) | ⊙ (magnetic deterioration rate is 1% or less)
13 | CCCCCCCCCCCCCCCCCCC(CC(=O)OCCC(F)(F)C(F)(F)C(F)(F)C(F)(F)C(F)(F)C(F)(F)C(F)(F)C(F)(F)C(F)(F)C(F)(F)F)C(=O)OC(CC(=O)O)C(=O)O (stereo not drawn) [Example 31, CF3(CF2)9(CH2)2OCOCH2CH(C18H37)COOCH(COOH)CH2COOH] | 0.22 | – | – | −0.8 dB | −1.0 dB | ⊙ (magnetic deterioration rate is 1% or less) | ⊙ (magnetic deterioration rate is 1% or less)
14 | CCCCCCCCCCCCCCCCCCC(CC(=O)OC(CC(=O)O)C(=O)O)C(=O)OCCC(F)(F)C(F)(F)C(F)(F)C(F)(F)C(F)(F)C(F)(F)C(F)(F)C(F)(F)F (stereo not drawn) [Example 28, CF3(CF2)7(CH2)2OCOCH(C18H37)CH2COOCH(COOH)CH2COOH] | 0.23 | – | – | −0.8 dB | −0.5 dB | ⊙ (magnetic deterioration rate is 1% or less) | ⊙ (magnetic deterioration rate is 1% or less)
15 | CCCCCCCCCCCCCCCCCCC(CC(=O)OCCCCCCCC(CC(CCCCC)C(F)(F)C(F)(F)C(F)(F)C(F)(F)C(F)(F)C(F)(F)C(F)(F)C(F)(F)C(F)(F)C(F)(F)F)C(F)(F)C(F)(F)C(F)(F)C(F)(F)C(F)(F)C(F)(F)C(F)(F)C(F)(F)C(F)(F)C(F)(F)F)C(CC(=O)O)C(=O)O (stereo not drawn) [Example 37, CH3(CH2)3(CH2CH((CF2)9CF3))2(CH2)7OCOCH2CH(C18H37)CH(COOH)CH2COOH] | 0.21 | – | – | −1.0 dB | −1.0 dB | ⊙ (magnetic deterioration rate is 1% or less) | ⊙ (magnetic deterioration rate is 1% or less)
16 | O=C(O)CC(OC(=O)CCCCCCCCCCC(F)(F)C(F)(F)C(F)(F)C(F)(F)C(F)(F)C(F)(F)C(F)(F)C(F)(F)C(F)(F)C(F)(F)F)C(=O)O (stereo not drawn) [Example 15, CF3(CF2)9(CH2)10COOCH(COOH)CH2COOH] | 0.20 | ⊙ (magnetic deterioration rate is 1% or less) | ⊙ (magnetic deterioration rate is 1% or less) | −1.0 dB | −0.5 dB | – | –
17 | O=C(O)CC(CC(=O)OCCCCCCCCCCCC(F)(F)C(F)(F)C(F)(F)C(F)(F)C(F)(F)C(F)(F)C(F)(F)C(F)(F)C(F)(F)C(F)(F)F)C(=O)O (stereo not drawn) [Example 22, CF3(CF2)9(CH2)11OCOCH2CH(COOH)CH2COOH] | 0.20 | – | – | −1.0 dB | −0.5 dB | ⊙ (magnetic deterioration rate is 1% or less) | ⊙ (magnetic deterioration rate is 1% or less)
18 | CCCCCCC(CC=CCCCCCCCCOC(=O)CC(CC(=O)O)C(=O)O)C(F)(F)C(F)(F)C(F)(F)C(F)(F)C(F)(F)C(F)(F)C(F)(F)C(F)(F)F (stereo not drawn) [Example 26, CF3(CF2)7CH(C6H13)CH2CH═CH(CH2)8OCOCH2CH(COOH)CH2COOH] | 0.25 | – | – | −1.0 dB | −1.0 dB | ◯ (magnetic deterioration rate is 3% or less) | ⊙ (magnetic deterioration rate is 1% or less)

Source: patent US7323260B2, “Lubricant, recording medium and carboxylic acid compound” (Sony Corporation, priority 2003, dated 2008)
